In PubChem BioAssay AID504834 (National Center for Advancing Translational Sciences (NCATS), 2011):
Out of some 320,000 compounds screened, about 22,000 (6.9%) were called active. This list was built around the results that the source calls inconclusive (neither active nor inactive); the mix of calls is not that of the screen. The call rests on the fitted dose curve; in most records, active means well fitted inhibition curve with a large enough effect; inconclusive means small, poorly fitted or top-dose-only effect, or another doubt; inactive means no such curve, though single readings can be large or run the other way. Where the call is inconclusive, the potency comes from a doubtful curve fit.

Test: Primary qHTS for delayed death inhibitors of the malarial parasite plastid, 96 hour incubation
Conditions: P. falciparum luciferase reporter growth; series mostly up to 28.7 µM; activity change, negative = inhibition: at the top concentration
Method in brief: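 Two-generation exposure (96 h) targets delayed-death phenotype. Reporter parasites carrying integrated firefly luciferase, in red cells at 2% hematocrit and 0.05% parasitemia final, kept at 37 C, 5% CO2; luminescence loss indicates inhibition.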
On the % scale 0 is the no-effect control and ±100 the full control effect; potency means the concentration at half of the fitted maximal effect.

Compound | Potency | activity change, negative = inhibition
CCS(=O)(=O)Nc1ccc(C2=NN(S(=O)(=O)c3ccc(F)cc3)C(c3ccco3)C2)cc1 (stereo not given) | inconclusive: 11.7 µM [inhibitor, single point] | –
CCN(CC)S(=O)(=O)c1cc(NC(=O)[C@@H](NC(N)=O)C(C)C)ccc1C | – | inactive: 0.236%
Cc1cccc(OCC(=O)NCCN2CCOCC2)c1 | – | inactive: -7.03%
CCCNC(=O)c1c(O)c2cccc3c2n(c1=O)CCC3 | inconclusive: 18.5 µM [inhibitor, single point] | –
CCCc1cc(=O)oc2cc(OC(C)C(=O)NC3CC(C)(C)NC(C)(C)C3)ccc12 (stereo not given) | inconclusive: 14.7 µM [inhibitor, single point] | –
O=C(Nc1ccc2c(c1)N(S(=O)(=O)c1cccs1)CCC2)c1c(F)cccc1Cl | inconclusive: 3.7 µM [inhibitor, partial curve, poor fit] | –
O=C1Nc2ccc(S(=O)(=O)N3CCCCCC3)c3cccc1c23 | inconclusive: 13.1 µM [inhibitor, single point] | –
COc1ccccc1CNC(=O)C(NS(=O)(=O)c1ccc2c(c1)oc(=O)n2C)C(C)C (stereo not given) | inconclusive: 18.5 µM [inhibitor, single point] | –
CC(NC(=O)C1CCCC1)c1ccc(Br)cc1 (stereo not given) | inconclusive: 10.4 µM [inhibitor, partial curve, poor fit] | –
CNC(=O)CCC(=O)Nc1ccc(C)cc1 | – | inactive: 46.7%
COc1ccc(NC(=O)CN(C)C(=O)c2cc(-c3ccco3)nc3ccccc23)cc1 | inconclusive: 10.4 µM [inhibitor, single point] | –
Cc1cc(Oc2ncccc2[N+](=O)[O-])c2cc(Cl)ccc2n1 | inconclusive: 10.4 µM [inhibitor, partial curve, poor fit] | –
O=C(/C=C/c1ccc(Cl)cc1)c1cccnc1 | inconclusive: 18.5 µM [inhibitor, single point] | –
CCOc1ccc(-c2c(C(=O)N/N=C/C3CCCCC3)nnn2-c2nonc2N)cc1 | – | inactive: 26.6%
C1CCC(CNc2c3c(nc4nnnn24)CCCC3)CC1 | active: 13.1 µM | –
COc1ccc(NC(=O)CNc2cc(C)ccc2C)cc1S(=O)(=O)N1CCOCC1 | active: 14.7 µM | –
O=c1[nH]nc(Cc2ccc(Cl)cc2Cl)c2ccccc12 | inconclusive: 16.5 µM [inhibitor, single point] | –
O=C(CNC(=O)c1cc(Cl)nc2ccccc12)Nc1ccccc1Br | inconclusive: 0.828 µM [inhibitor, partial curve] | –
CCCC[n+]1ccc(-c2nc3ccc([N+](=O)[O-])cc3[nH]2)cc1 | inconclusive: 18.5 µM [inhibitor, single point] | –
CCOc1cc(/C=C2\N=C(SC(C)C(N)=O)N(c3ccc(OC(F)F)cc3)C2=O)ccc1O (stereo not given) | active: 1.17 µM | –
O=[N+]([O-])c1ccc(NC(=S)NCCc2ccccc2)cc1 | – | inactive: -1.49%
CCC1CCCCN1S(=O)(=O)c1ccc(NC(=O)C2CCCO2)cc1 (stereo not given) | – | inactive: 38.8%
COCCN(Cc1ccccc1)C(=O)c1cccc(S(=O)(=O)N2CCCc3ccccc32)c1 | – | inactive: -21.9%

Compound | Potency | activity change, negative = inhibition
O=C(NNC(=O)c1cc(-c2ccc(Cl)c(Cl)c2)nc2ccccc12)Nc1ccccc1 | inconclusive: 4.15 µM [inhibitor, partial curve] | –
O=C(c1ccc([N+](=O)[O-])o1)N1CCc2ccccc21 | inconclusive: 18.5 µM [inhibitor, single point] | –
CN(Cc1ccc(F)cc1)C(=O)c1ccc(NC(=O)CC2SC(N3CCCC3)=NC2=O)cc1 (stereo not given) | inconclusive: 9.28 µM [inhibitor, single point] | –
Cc1ccc(C)c(OCCC(=O)Nc2cccc(S(=O)(=O)NC3=NCCCCC3)c2)c1 | inconclusive: 5.86 µM [inhibitor, partial curve] | –
COc1ccccc1-c1ccc(SCc2ccccc2F)nn1 | – | inactive: 115%
Cc1ccc(-n2nc3c(=O)n(CCCC(=O)NCc4cccc(Cl)c4)nc(C)c3c2C)cc1 | inconclusive: 11.7 µM [inhibitor, single point] | –
O=C(CSc1nc2ccccc2n1CCc1ccccc1)NC1CC1 | inconclusive: 10.4 µM [inhibitor, single point] | –
CC(C)Cn1c(N2CCN(C(=O)/C=C/c3ccccc3)CC2)nc2ccccc21 | inconclusive: 13.1 µM [inhibitor, single point] | –
Cc1cccc(CN2CCc3c([nH]c4ccccc34)C2CC(C)C)n1 (stereo not given) | active: 10.4 µM | –
COc1cc(/C=N/NC(=O)c2ccncc2)ccc1OCC(=O)Nc1ccccc1 | – | inactive: 0.467%
CCOC(=O)C1CCN(C(=O)Cc2ccc(OC)c(OC)c2)CC1 | inconclusive: 11.7 µM [inhibitor, partial curve] | –
CCC(=O)Nc1c(C(=O)Nc2cccc(OC)c2)oc2ccccc12 | – | inactive: 54.1%
O=C(/C=C/c1ccc2c(c1)OCO2)Nc1ccc(Cl)cn1 | – | inactive: 40.8% [at 5.75 µM]
COc1ccc(O)c(C(=O)c2cnc3c(c2)CN(C)C(=O)N3)c1 | – | inactive: -6.66%
CC1SC(C)C(=O)N(CC(=O)Nc2ccc([N+](=O)[O-])cc2)C1=O (stereo not given) | inconclusive: 18.5 µM [inhibitor, single point] | –
Cc1cccc(C)c1OCC(=O)N(Cc1ccc(Cl)cc1)C1CCS(=O)(=O)C1 (stereo not given) | inconclusive: 13.1 µM [inhibitor, single point] | –
O=C(O)CCC(=O)N1CCc2cc(S(=O)(=O)NCCc3ccc(Cl)cc3)ccc21 | inconclusive: 14.7 µM [inhibitor, single point] | –
CCN(CC)S(=O)(=O)c1ccc(N2CCCCC2)c(NC(=O)c2ccncc2)c1 | inconclusive: 0.828 µM [inhibitor, partial curve, poor fit] | –
COc1ccc(NC(=O)c2c(N)cnn2C)cc1 | inconclusive: 8.28 µM [inhibitor, partial curve, poor fit] | –
COc1ccc(OC)c(-c2csc(CCn3nc(C)cc3C)n2)c1 | – | inactive: -1.93%
C/C=C(\C)C(=O)NCCN1C2=NC[C@H](Cc3ccccc3)N2C[C@H]1Cc1ccc(O)cc1 | active: 3.7 µM | –
CC(C)Sc1nc2c(cnn2-c2ccc(Cl)cc2)c(=O)[nH]1 | – | inactive: 0.488%

Sorted by molecular weight (ascending): part of the list above.
Compound | Potency | activity change, negative = inhibition
CCOC(=O)C1CCN(C(=O)Cc2ccc(OC)c(OC)c2)CC1 | inconclusive: 11.7 µM [inhibitor, partial curve] | –
Cc1cccc(C)c1OCC(=O)N(Cc1ccc(Cl)cc1)C1CCS(=O)(=O)C1 (stereo not given) | inconclusive: 13.1 µM [inhibitor, single point] | –
CN(Cc1ccc(F)cc1)C(=O)c1ccc(NC(=O)CC2SC(N3CCCC3)=NC2=O)cc1 (stereo not given) | inconclusive: 9.28 µM [inhibitor, single point] | –
